We go through seven molecules from paper PMC10721647.

These are yes or no findings as the source states them, for the method shown. In cells and extracts the contact can be indirect. These calls come from enrichment with a bait or labelling near it, and not all partners need be listed.

In the assay the target is FLAG-BPLF1, viral ubiquitin deconjugase (vDUB) encoded in the N-terminal domain (aa 1-235) of the Epstein-Barr virus large tegument protein BPLF1 (Epstein-Barr virus) (UniProt P03186). Nature of the assay: affinity purification with mass spectrometry; anti-FLAG immunoprecipitates of cells transfected with FLAG-BPLF1 or FLAG-BPLF1 C61A against FLAG-empty vector, biological duplicates; hits need at least four unique spectral counts; mass spectrometry data previously reported (ref. 43) and reanalysed here.

Turning to “SEC63 subunit of the ER translocon (from UniProt Q9UGP8 1-760)”, the binding entry is recorded as “binds”. As to “eIF2α, translation pre-initiation complex subunit (from UniProt P05198 1-315)”, the binding entry is recorded as “binds”. In the case of “AAA+ ATPase VCP/p97 (from UniProt P55072 1-806)”, the binding entry is recorded as “binds”.

B1: Ribophorin (RPN)-1 subunit of the translocon-associated N-oligosaccharyltransferase (OST) complex (protein, UniProt P04843 24-607)
chain: ASSEAPPLINEDVKRTVDLSSHLAKVTAEVVLAHLGGGSTSRATSFLLALEPELEARLAHLGVQVKGEDEEENNLEVRETKIKGKSGRFFTVKLPVALDPGAKISVIVETVYTHVLHPYPTQITQSEKQFVVFEGNHYFYSPYPTKTQTMRVKLASRNVESYTKLGNPTRSEDLLDYGPFRDVPAYSQDTFKVHYENNSPFLTITSMTRVIEVSHWGNIAVEENVDLKHTGAVLKGPFSRYDYQRQPDSGISSIRSFKTILPAAAQDVYYRDEIGNVSTSHLLILDDSVEMEIRPRFPLFGGWKTHYIVGYNLPSYEYLYNLGDQYALKMRFVDHVFDEQVIDSLTVKIILPEGAKNIEIDSPYEISRAPDELHYTYLDTFGRPVIVAYKKNLVEQHIQDIVVHYTFNKVLMLQEPLLVVAAFYILFFTVIIYVRLDFSITKDPAAEARMKVACITEQVLTLVNKRIGLYRHFDETVNRYKQSRDISTLNSGKKSLETEHKALTSEIALLQSRLKTEGSDLCDRVSEMQKLDAQVKELVLKSAVEAERLVAGKLKKDTYIENEKLISGKRQELVTKIDHILDAL
Regarding B1, the binding entry is “binds”.

B2: ZNF598, RQC ubiquitin ligase (protein, UniProt Q86UK7 1-904)
chain: MAAAGGAEGRRAALEAAAAAAPERGGGSCVLCCGDLEATALGRCDHPVCYRCSTKMRVLCEQRYCAVCREELRQVVFGKKLPAFATIPIHQLQHEKKYDIYFADGKVYALYRQLLQHECPRCPELPPFSLFGDLEQHMRRQHELFCCRLCLQHLQIFTYERKWYSRKDLARHRMQGDPDDTSHRGHPLCKFCDERYLDNDELLKHLRRDHYFCHFCDSDGAQDYYSDYAYLREHFREKHFLCEEGRCSTEQFTHAFRTEIDLKAHRTACHSRSRAEARQNRHIDLQFSYAPRHSRRNEGVVGGEDYEEVDRYSRQGRVARAGTRGAQQSRRGSWRYKREEEDREVAAAVRASVAAQQQEEARRSEDQEEGGRPKKEEAAARGPEDPRGPRRSPRTQGEGPGPKETSTNGPVSQEAFSVTGPAAPGCVGVPGALPPPSPKLKDEDFPSLSASTSSSCSTAATPGPVGLALPYAIPARGRSAFQEEDFPALVSSVPKPGTAPTSLVSAWNSSSSSKKVAQPPLSAQATGSGQPTRKAGKGSRGGRKGGPPFTQEEEEDGGPALQELLSTRPTGSVSSTLGLASIQPSKVGKKKKVGSEKPGTTLPQPPPATCPPGALQAPEAPASRAEGPVAVVVNGHTEGPAPARSAPKEPPGLPRPLGSFPCPTPQEDFPALGGPCPPRMPPPPGFSAVVLLKGTPPPPPPGLVPPISKPPPGFSGLLPSPHPACVPSPATTTTTKAPRLLPAPRAYLVPENFRERNLQLIQSIRDFLQSDEARFSEFKSHSGEFRQGLISAAQYYKSCRDLLGENFQKVFNELLVLLPDTAKQQELLSAHTDFCNREKPLSTKSKKNKKSAWQATTQQAGLDCRVCPTCQQVLAHGDASSHQALHAARDDDFPSLQAIARIIT
Regarding B2, the binding result is listed as “binds”.

B3: β subunit of the SRP receptor (SRPRB) (protein, UniProt Q9Y5M8 1-271)
chain: MASADSRRVADGGGAGGTFQPYLDTLRQELQQTDPTLLSVVVAVLAVLLTLVFWKLIRSRRSSQRAVLLVGLCDSGKTLLFVRLLTGLYRDTQTSITDSCAVYRVNNNRGNSLTLIDLPGHESLRLQFLERFKSSARAIVFVVDSAAFQREVKDVAEFLYQVLIDSMGLKNTPSFLIACNKQDIAMAKSAKLIQQQLEKELNTLRVTRSAAPSTLDSSSTAPAQLGKKGKEFEFSQLPLKVEFLECSAKGGRGDVGSADIQDLEKWLAKIA
Turning to B3, the binding entry was “binds”.

B4: SRP68 subunit of the Signal Recognition Particle (SRP) (protein, UniProt Q9UHB9 1-627)
chain: MAAEKQVPGGGGGGGSGGGGGSGGGGSGGGRGAGGEENKENERPSAGSKANKEFGDSLSLEILQIIKESQQQHGLRHGDFQRYRGYCSRRQRRLRKTLNFKMGNRHKFTGKKVTEELLTDNRYLLLVLMDAERAWSYAMQLKQEANTEPRKRFHLLSRLRKAVKHAEELERLCESNRVDAKTKLEAQAYTAYLSGMLRFEHQEWKAAIEAFNKCKTIYEKLASAFTEEQAVLYNQRVEEISPNIRYCAYNIGDQSAINELMQMRLRSGGTEGLLAEKLEALITQTRAKQAATMSEVEWRGRTVPVKIDKVRIFLLGLADNEAAIVQAESEETKERLFESMLSECRDAIQVVREELKPDQKQRDYILEGEPGKVSNLQYLHSYLTYIKLSTAIKRNENMAKGLQRALLQQQPEDDSKRSPRPQDLIRLYDIILQNLVELLQLPGLEEDKAFQKEIGLKTLVFKAYRCFFIAQSYVLVKKWSEALVLYDRVLKYANEVNSDAGAFKNSLKDLPDVQELITQVRSEKCSLQAAAILDANDAHQTETSSSQVKDNKPLVERFETFCLDPSLVTKQANLVHFPPGFQPIPCKPLFFDLALNHVAFPPLEDKLEQKTKSGLTGYIKGIFGFRS
B4: the binding entry was “binds”.
